Test results reported in patent US7385023B1, “Cancer immunotherapy and diagnosis using cytochrome P450 1B1” (Trustees of Boston University, priority 2000, dated 2008).
Part of at least one peptide drawing is inferred or uncertain, most often the ends. Peptide text beside a SMILES is read from it.

System: primary peripheral blood derived monocytes
Assay: 51Cr release cytotoxicity assay, primary monocytes
Assay type: cell-based, human
Details: four healthy donors

CSCC[C@H](NC(=O)[C@@H](NC(=O)[C@H](CC(=O)O)NC(=O)[C@@H](NC(=O)[C@H](CC(C)C)NC(=O)[C@@H](N)CO)C(C)C)C(C)C)C(=O)N1CCC[C@H]1C(=O)N[C@@H](Cc1c[nH]c2ccccc12)C(=O)N[C@@H](CC(C)C)C(=O)O [CYP239] (H-SLVDVMPWL-OH)
lysis of primary monocytes by peptide-specific CTL: failed to lyse

CC(C)C[C@H](NC(=O)[C@@H](N)Cc1c[nH]c2ccccc12)C(=O)N[C@@H](CCC(N)=O)C(=O)N[C@@H](Cc1ccc(O)cc1)C(=O)N[C@@H](Cc1ccccc1)C(=O)N1CCC[C@H]1C(=O)N[C@@H](CC(N)=O)C(=O)N1CCC[C@H]1C(=O)N[C@H](C(=O)O)C(C)C [CYP246] (H-WLQYFPNPV-OH; N-terminus and C-terminus assumed)
lysis of primary monocytes by peptide-specific CTL: failed to lyse
